Source: PubChem BioAssay AID2685 (National Center for Advancing Translational Sciences (NCATS), 2010)
The campaign covered roughly 320,000 compounds. About 2,100 (0.66%) were called active. Inconclusive results, whose numbers are uncertain, are shown with a selection of clear calls. The call rests on the fitted dose curve; in most records, active means well fitted inhibition curve with a large enough effect in the signal ratio, with a control signal flat (not every such curve was filed as active); inconclusive means small, poorly fitted or top-dose-only effect, or effect the other way, or a change in a side signal; inactive means flat fitted curve, though single readings scatter; the % refers to the signal ratio. Potencies beside an inconclusive call are fits to weak or partial responses and may not hold up.

Assay: qHTS Assay for Lipid Storage Modulators in Drosophila S3 Cells
Conditions: BODIPY lipid droplet fluorescence, 18-24 h, cells fed with added oleic acid; lipid storage change, negative = inhibition: at 46.1 µM (top of the series) unless noted
Summary of the method: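 Drosophila S3 cells loaded with oleic acid (400 uM, as added) and compounds at several concentrations; lipid droplets imaged by 488-nm laser-scanning cytometry, 500–530 nm intensity and object ratio to cell channel. Percent activity normalized to 20 uM Triacsin C.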
On the % scale 0 is the no-effect control and ±100 the full control effect; potency means the concentration at half of the fitted maximal effect.

| Structure (SMILES) | lipid storage change, negative = inhibition | Potency | outcome |
| --- | --- | --- | --- |
| CCOc1c(P(=S)(N(C)C)N(C)C)c(C)nn1-c1ccccc1 | inconclusive: 48.6% | – | – |
| CCN(CC)c1ccc(N=Cc2c(O)n(CCC3=CCCCC3)c(=O)[nH]c2=O)cc1 | inconclusive: -4.78% | – | – |
| COC(=O)c1ccc(N2CCN(C)CC2)c([N+](=O)[O-])c1 | inconclusive: 43.2% | – | – |
| CC(C)COP(=O)(c1ccc(N(C)C)cc1)C(O)c1ccccc1 (centres undefined) | – | inconclusive: 2.59 µM [falling, partial curve] | – |
| CC1(O)CCN2C(=O)CCc3cccc1c32 (centres undefined) | inactive: -0.531% | – | – |
| COC(=O)C1=C(c2ccc(OCc3ccccc3)cc2)C[C@@H]2CC[C@H]1N2C(=O)NCc1cccc(C(F)(F)F)c1 | – | inconclusive: 0.0731 µM [falling, full curve, poor fit] | – |
| O=C(O)C(Cc1cnc[nH]1)NS(=O)(=O)c1ccc(Br)cc1 (centres undefined) | – | inconclusive: 7.31 µM [falling, single point] | – |
| CCC/C=N/O | inconclusive: -40.3% | – | – |
| CN1CCCN(c2ccc([N+](=O)[O-])nc2)CC1 | – | inconclusive: 0.58 µM [activator, single point] | – |
| COc1ccc(CN2CCN(C(=O)COc3cccc(C)c3)CC2)c(OC)c1 | – | inconclusive: 1.84 µM [activator, partial curve, poor fit] | – |
| CCCCn1c(O)c(C(C)=Nc2ccc(C(=O)O)cc2)c(=O)[nH]c1=O | inconclusive: 43.7% | – | – |
| O=C(NCc1cccnc1)Nc1ccccc1Cl | – | – | inactive |
| Cc1ccc(C(=O)c2cc(Br)ccc2N)cc1 | inconclusive: 1.59% | – | – |
| CC(=O)c1c(O)n(C)c(=S)n(-c2ccccc2)c1=O | inconclusive: -11.3% | – | – |
| CCCNC(=O)Cn1cnc2sc(C(=O)N3CCC4(CC3)OCCO4)c(C)c2c1=O | – | inconclusive: 5.17 µM [activator, partial curve] | – |
| COC(=O)C1=C(c2ccc(C(C)=O)cc2)C[C@@H]2CC[C@H]1N2C(=O)NCCO | inconclusive: 4.8% | – | – |
| CC(=O)Nc1ccccc1C(=O)OCc1ccc(C(=O)c2ccccc2)cc1 | inconclusive: -25.6% | – | – |
| O=C(CCCN1CCC(n2c(=O)[nH]c3ccccc32)CC1)c1ccc(F)cc1 | inconclusive: 27.4% | – | – |
| COC(=O)C1=C(c2ccc(OC(F)(F)F)cc2)C[C@@H]2CC[C@H]1N2C(=O)NC1CC1 | – | inconclusive: 0.0041 µM [activator, full curve, poor fit] | – |
| C#CC1(OC(=O)c2ccccc2)CC(C)N(C)CC1C (centres undefined) | – | inconclusive: 29.1 µM [activator, single point] | – |
| COC(=NC1CCCCC1)C(O)c1c[nH]c2ccccc12 (centres undefined) | – | inconclusive: 0.82 µM [falling, full curve] | – |
| CCN1C(=O)C(=Cc2ccc(C)s2)C(=O)N(CC)C1=S | inconclusive: -1.07% | – | – |
| COc1ccc(-c2nn(CCC#N)cc2C(=O)Nc2ccc(C(C)=O)cc2)cc1[N+](=O)[O-] | – | inconclusive: 2.59 µM [activator, partial curve, poor fit] | – |
| CCCCn1c(O)c(C(C)=Nc2ccc(OCC)cc2)c(=O)[nH]c1=O | inconclusive: 54.9% | – | – |
| CC(=O)Nc1ccc2c(c1)CC1(C(=O)N(C)C(=O)N(C)C1=O)C1CCCN21 (centres undefined) | inconclusive: -42.6% | – | – |
| O=C(CCn1c(=O)oc2ccc(Cl)cc21)NCCCN1CCOCC1 | – | inconclusive: 29.1 µM [falling, single point] | – |
| Cc1ccc(Cn2nnnc2CN2CCC(n3nnc4ccccc43)CC2)cc1 | inconclusive: 12.1% [at 9.22 µM] | – | – |

| Structure (SMILES) | lipid storage change, negative = inhibition | Potency | outcome |
| --- | --- | --- | --- |
| Clc1ccc(COC(Cn2ccnc2)c2ccc(Cl)cc2Cl)c(Cl)c1 (centres undefined) | – | inconclusive: 16.4 µM [cytotoxic, single point] | – |
| COCCOC(=O)C1=C(C)OC(N)=C(C(=O)OC)C12C(=O)Nc1ccccc12 (centres undefined) | inconclusive: -5.98% | – | – |
| O=C1CSC2N1CCNC21CCCCC1 (centres undefined) | – | inconclusive: 0.58 µM [activator, full curve] | – |
| Cc1cc(/C=C2/C(=O)NC(=O)N(C)C2=O)c(C)n1-c1ccccc1 | inconclusive: 22% | – | – |
| CCOc1cc(-c2nc3c(C)cccn3c2NCC2CCCO2)ccc1O (centres undefined) | inconclusive: 25% | – | – |
| CC(C)c1ccc(NC(=O)CSc2nnc(OC(=O)N(C)C)n2C2CC2)cc1 | inconclusive: 25.4% | – | – |
| O=C(Nc1ccccc1OC(=O)N1CCOCC1)N1CCOCC1 | inconclusive: 39.9% | – | – |
| O=c1[nH]c(=S)[nH]c(O)c1/C=C1/C=c2ccccc2=N1 | – | active: 16.4 µM | – |
| COc1cccc(CN2CCCC(C(=O)c3ccccc3SC)C2)c1O (centres undefined) | inconclusive: -7.83% | – | – |
| COc1cccc(CN2CCCCC2c2cccnc2)c1 (centres undefined) | inconclusive: -60.9% | – | – |
| N#CC(c1ccc(Cl)cc1)N1CCOCC1 (centres undefined) | – | inconclusive: 2.31 µM [activator, partial curve, poor fit] | – |
| CN(C)C(Cc1ccccc1)C(=O)c1ccccc1 (centres undefined) | inconclusive: 20.8% | – | – |
| CSC(=Nc1ccccc1)c1c(O)n(C)c(=O)n(C)c1=O | inconclusive: 14.2% | – | – |
| OC1(CN2CCOCC2)C2CC3CC(C2)CC1C3 (centres undefined) | – | active: 8.2 µM | – |
| COc1ccc(CNCCc2cccc(F)c2)c2ccccc12 | – | inconclusive: 18.4 µM [rising, partial curve] | – |
| COc1ccc(OC)c(C(O)C(C)N)c1 (centres undefined) | inconclusive: -9.82% | – | – |
| COc1cc2c(cc1OC)-c1c(OC)c(OC)cc3c1C(C2)N(C)CC3 (centres undefined) | – | inconclusive: 16.4 µM [activator, single point] | – |
| C=CCn1c(O)c(C(CC)=NCCCO)c(=O)[nH]c1=O | inconclusive: 6.2% | – | – |
| COc1ccc(OC(=O)N(C)C)c(CN(C)C)c1 | – | inconclusive: 0.231 µM [falling, full curve, poor fit] | – |
| COc1ccccc1OCCCn1cc(C(=O)C2CC2)c2ccccc21 | inconclusive: 19.4% | – | – |
| c1ccc(CN2CCc3nc4ccccc4cc3C2)cc1 | inconclusive: 10.5% | – | – |
| Cn1cc(C(=O)NC2CC2)c2ccccc21 | inconclusive: 0.831% | – | – |
| Cc1cc(C)nc(/N=C(\N)c2c(O)[nH]c(=O)[nH]c2=O)n1 | – | inconclusive: 0.82 µM [activator, partial curve] | – |
| O=C1NC(=O)C(CCc2ccncc2)(CCc2ccccn2)C(=O)N1c1ccc(Br)cc1 (centres undefined) | inconclusive: 13.6% | – | – |
| COc1ccc(/C=C/C(=O)NC(=S)N2C[C@H]3C[C@H](C2)c2cccc(=O)n2C3)cc1OC | inconclusive: 10.4% | – | – |
| CC(C)COc1ccc(C2(C#N)CC[N+](C)(C)CC2)cc1 | inconclusive: 2.35% | – | – |
| CCCCCn1c(=O)c(C(=O)NC(C)c2ccccc2)c(O)c2ccccc21 (centres undefined) | – | inconclusive: 8.2 µM [activator, partial curve, poor fit] | – |

| Structure (SMILES) | lipid storage change, negative = inhibition | Potency | outcome |
| --- | --- | --- | --- |
| CCOC(=O)Cn1cc(C(=O)c2ccccc2)c2ccccc21 | inconclusive: -36.8% | – | – |
| COc1ccc(C(=O)N2CCOCC2)cc1S(=O)(=O)N1CCC(C)CC1 | inconclusive: -35.1% | – | – |
| CC1(C)CC(=O)C(C2(O)C(=O)NC(=O)NC2=O)=C(O)C1 | inconclusive: -14.5% | – | – |
| COc1ccc(CC(C)Nc2cccc(F)c2)cc1 (centres undefined) | – | inconclusive: 29.1 µM [activator, single point] | – |
| CCc1cccc(NC(=O)Cn2c(=O)oc3cc(S(=O)(=O)N4CCOCC4)ccc32)c1 | – | inconclusive: 1.64 µM [falling, partial curve] | – |
| Cc1ccc(-n2c(/C=C/c3ccccn3)nc3ccccc3c2=O)cc1 | – | active: 6.51 µM | – |
| C[N+](C)(C)c1ccccc1 | inconclusive: -45.7% | – | – |
| CCN(CC)C(=O)c1ccc(NC(=O)CNC(C)c2cccc3ccccc23)cc1 (centres undefined) | inconclusive: -100% | – | – |
| O=c1cc(-c2ccc(O)c(O)c2)oc2cc(O)cc(O)c12 | – | inconclusive: 32.6 µM [falling, single point] | – |
| CC(C)(C)P(=O)(N1CCOCC1)N1CCOCC1 | inconclusive: -3.43% | – | – |
| c1ccc(CN2CCN(Cc3ccc4c(c3)OCCO4)CC2)cc1 | inconclusive: 35.8% | – | – |
| Cc1c2cnn(CC(=O)N3CCC4(CC3)OCCO4)c(=O)c2c(C)n1Cc1cccc(Cl)c1 | – | inconclusive: 29.1 µM [falling, single point] | – |
| NC(=S)c1cn(C2OC(CO)C(O)C2O)c2ncnc(N)c12 (centres undefined) | – | inconclusive: 1.46 µM [cytotoxic, full curve, poor fit] | – |
| Clc1cccc(Cl)c1CN1CCN(c2ccccc2)CC1 | inconclusive: 344% | – | – |
| Cc1nc2cc(C(F)(F)F)ccc2n1C1CCN(Cc2nnnn2Cc2cccs2)CC1 | – | inconclusive: 2.59 µM [activator, full curve] | – |
| O=C(CCCc1ccccc1)NCCc1cnc[nH]1 | inconclusive: -6.32% | – | – |
| CCCCCn1c(=O)c(C(=O)Nc2ccccn2)c(O)c2ccccc21 | – | inconclusive: 3.26 µM [falling, single point] | – |
| CC(=O)c1c(O)n(C2CCCCCC2)c(=O)[nH]c1=O | inconclusive: 42.1% | – | – |
| OC12CCCCC1C(c1ccccc1)NCC2 (centres undefined) | inconclusive: -40.5% | – | – |
| O=C(Cn1c(=O)oc2cccnc21)Nc1ccccc1Oc1ccc(Cl)cc1Cl | – | inconclusive: 16.4 µM [activator, single point] | – |
| CC(NCc1cccc(Cl)c1Cl)C(O)c1ccccc1 (centres undefined) | inconclusive: -8.21% | – | – |
| C=Cn1ccnc1P(=S)(c1ccn(C)c1)c1nccn1C=C | inconclusive: 83% | – | – |
| Cn1cc(C(=O)NCc2ccccc2)c2ccccc21 | inconclusive: 18.6% | – | – |
| CN1C(=O)N(C)C(=O)C2(Cc3cc([N+](=O)[O-])ccc3N(C)C2)C1=O | inconclusive: 36.6% | – | – |
| NNc1n[nH]c(=S)n1N | – | inconclusive: 7.31 µM [falling, single point] | – |

Quoted at random: 3 entries already listed

| Structure (SMILES) | lipid storage change, negative = inhibition | Potency | outcome |
| --- | --- | --- | --- |
| COc1cccc(CN2CCCC(C(=O)c3ccccc3SC)C2)c1O (centres undefined) | inconclusive: -7.83% | – | – |
| C[N+](C)(C)c1ccccc1 | inconclusive: -45.7% | – | – |
| OC1(CN2CCOCC2)C2CC3CC(C2)CC1C3 (centres undefined) | – | active: 8.2 µM | – |

Of the compounds above, 3 have a thiophene ring, fused or not:

| Structure (SMILES) | lipid storage change, negative = inhibition | Potency | outcome |
| --- | --- | --- | --- |
| CCCNC(=O)Cn1cnc2sc(C(=O)N3CCC4(CC3)OCCO4)c(C)c2c1=O | – | inconclusive: 5.17 µM [activator, partial curve] | – |
| CCN1C(=O)C(=Cc2ccc(C)s2)C(=O)N(CC)C1=S | inconclusive: -1.07% | – | – |
| Cc1nc2cc(C(F)(F)F)ccc2n1C1CCN(Cc2nnnn2Cc2cccs2)CC1 | – | inconclusive: 2.59 µM [activator, full curve] | – |
